This note sets out measurements from article PMC5584168.

Amino acid sequences for entries named in this document (tags omitted). A change or cut given only in a name is not applied to a line headed by its entry.
UniProt P38200: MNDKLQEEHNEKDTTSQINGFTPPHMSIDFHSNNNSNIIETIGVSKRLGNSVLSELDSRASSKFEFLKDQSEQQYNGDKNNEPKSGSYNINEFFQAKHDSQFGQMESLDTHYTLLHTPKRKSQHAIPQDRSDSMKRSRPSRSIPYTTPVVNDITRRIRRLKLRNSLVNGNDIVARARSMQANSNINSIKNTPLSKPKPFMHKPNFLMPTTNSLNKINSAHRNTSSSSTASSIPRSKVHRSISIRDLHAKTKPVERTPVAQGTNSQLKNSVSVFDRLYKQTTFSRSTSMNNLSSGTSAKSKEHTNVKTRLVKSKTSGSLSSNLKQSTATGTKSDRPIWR

These are yes or no findings as the source states them, for the method shown. In cells and extracts the contact can be indirect. Binding can be weak; no strength is given. Where a sequence is shown, tags or fusion partners need not be part of it.

This assay addresses T1, GST-Sli15 (S. cerevisiae) (UniProt P38283).
T1 sequence: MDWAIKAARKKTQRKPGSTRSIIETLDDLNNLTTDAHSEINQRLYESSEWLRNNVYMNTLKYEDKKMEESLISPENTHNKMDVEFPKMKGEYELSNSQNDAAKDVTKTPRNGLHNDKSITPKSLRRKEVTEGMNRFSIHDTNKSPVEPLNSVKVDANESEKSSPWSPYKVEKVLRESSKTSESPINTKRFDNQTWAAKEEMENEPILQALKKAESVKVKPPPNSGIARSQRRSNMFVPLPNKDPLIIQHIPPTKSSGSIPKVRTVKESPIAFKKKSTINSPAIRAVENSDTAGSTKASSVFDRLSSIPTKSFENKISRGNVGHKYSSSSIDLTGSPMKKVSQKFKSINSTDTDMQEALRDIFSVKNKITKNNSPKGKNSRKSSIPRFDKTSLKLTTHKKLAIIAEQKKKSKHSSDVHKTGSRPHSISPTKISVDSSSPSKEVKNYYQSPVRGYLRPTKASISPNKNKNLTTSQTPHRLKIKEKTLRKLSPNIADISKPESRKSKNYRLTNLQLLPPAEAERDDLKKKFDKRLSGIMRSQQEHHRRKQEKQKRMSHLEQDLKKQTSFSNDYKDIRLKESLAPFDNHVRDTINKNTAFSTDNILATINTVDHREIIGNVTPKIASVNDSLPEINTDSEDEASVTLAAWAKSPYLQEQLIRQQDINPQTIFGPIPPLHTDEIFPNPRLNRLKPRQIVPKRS
Nature of the assay: pull-down; GST-Sli15 immobilized on glutathione beads incubated with yeast extract, 4°C, 45 min, yeast lysis buffer (20 mM Tris pH 7.5, 100 mM NaCl, 1 mM DTT, 0.1% Triton X-100, 1 mM EDTA); anti-c-Myc Western blot; only the target purified. (Immunoblotting shows a protein as a band on a membrane.)

As to “she1-ΔN126-13myc (from UniProt P38200) (domain or fragment)”, the binding result is given as “binds”.
